These are yes or no findings as the source states them, for the method shown. Some entries that bind do so weakly or less than the wild type. Where a sequence is shown, tags or fusion partners need not be part of it.

The target of the experiment is T1, rat PMEL17 with an N-terminal gD tag (rat).
T1 sequence: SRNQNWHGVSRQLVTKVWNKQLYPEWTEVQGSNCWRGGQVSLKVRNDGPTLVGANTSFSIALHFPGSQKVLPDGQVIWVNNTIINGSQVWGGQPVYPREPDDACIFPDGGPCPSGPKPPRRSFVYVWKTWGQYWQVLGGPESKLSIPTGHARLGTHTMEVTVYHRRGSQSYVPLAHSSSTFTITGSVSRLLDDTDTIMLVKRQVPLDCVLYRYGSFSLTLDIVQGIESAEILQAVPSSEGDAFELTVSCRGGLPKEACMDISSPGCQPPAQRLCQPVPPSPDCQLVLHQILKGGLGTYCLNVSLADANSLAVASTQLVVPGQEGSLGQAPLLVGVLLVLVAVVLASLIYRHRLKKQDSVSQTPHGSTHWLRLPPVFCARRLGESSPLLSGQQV
As to the kind of experiment: FACS, 293S cells stably transfected with gD tagged PMEL17, 10 µg/ml 17A9. Background: A flow cytometer gives signals particle by particle.

B1: 17A9 (antibody, V domains shown)
VH: EVQLQQSGPELVKPGASMKISCKSSGYSFTRYTMNWVKQSHGKNLEWIGVINPYNGGTVYNQKFKGKATLTVDKSSSTAYMELLSLTSEDSAVYYCARTDYDGYAMDYWGQGTSVTVSS
VL: DVQITQSPSYLAASPGETITINCRATKSISKYLAWYQEQPGKTNNLLIYSGSTLQSGIPSRFSGSGSGTDFTLTISSLEPEDFAMYYCQQHNEYPYTFGSGTKLEIK
For the molecule B1, the binding entry is on record as “binds”.

For the origin of these results see patent publication US20170240645A1.
